Results reported in PMC6051995.
No constants are given. Whether binding was seen depends on the method and setting. Binding seen in cells or lysates may run through a third protein. For part of these data: Binding can be weak; no strength is given.

Protein sequences, listed by entry. Tags and fused reporters are not part of them.
UniProt Q15910: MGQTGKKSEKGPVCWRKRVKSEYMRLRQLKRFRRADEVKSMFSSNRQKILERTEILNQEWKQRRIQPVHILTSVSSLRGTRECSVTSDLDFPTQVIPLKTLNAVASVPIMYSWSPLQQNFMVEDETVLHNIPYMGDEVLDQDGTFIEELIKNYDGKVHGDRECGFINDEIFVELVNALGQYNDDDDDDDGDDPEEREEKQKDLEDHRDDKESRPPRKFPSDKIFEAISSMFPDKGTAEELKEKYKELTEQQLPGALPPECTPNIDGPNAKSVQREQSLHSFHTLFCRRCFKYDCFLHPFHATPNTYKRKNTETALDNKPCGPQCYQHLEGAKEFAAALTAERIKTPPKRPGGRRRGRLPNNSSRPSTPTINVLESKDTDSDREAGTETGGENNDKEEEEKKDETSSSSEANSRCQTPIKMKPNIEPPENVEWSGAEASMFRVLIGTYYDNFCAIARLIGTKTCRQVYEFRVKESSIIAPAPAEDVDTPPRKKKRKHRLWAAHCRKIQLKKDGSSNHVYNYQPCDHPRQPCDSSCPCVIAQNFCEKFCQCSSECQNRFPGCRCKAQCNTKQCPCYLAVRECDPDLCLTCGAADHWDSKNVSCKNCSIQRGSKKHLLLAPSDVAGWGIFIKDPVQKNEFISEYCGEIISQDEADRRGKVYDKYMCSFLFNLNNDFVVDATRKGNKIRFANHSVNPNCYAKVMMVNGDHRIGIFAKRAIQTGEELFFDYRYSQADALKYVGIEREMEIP
UniProt O75530: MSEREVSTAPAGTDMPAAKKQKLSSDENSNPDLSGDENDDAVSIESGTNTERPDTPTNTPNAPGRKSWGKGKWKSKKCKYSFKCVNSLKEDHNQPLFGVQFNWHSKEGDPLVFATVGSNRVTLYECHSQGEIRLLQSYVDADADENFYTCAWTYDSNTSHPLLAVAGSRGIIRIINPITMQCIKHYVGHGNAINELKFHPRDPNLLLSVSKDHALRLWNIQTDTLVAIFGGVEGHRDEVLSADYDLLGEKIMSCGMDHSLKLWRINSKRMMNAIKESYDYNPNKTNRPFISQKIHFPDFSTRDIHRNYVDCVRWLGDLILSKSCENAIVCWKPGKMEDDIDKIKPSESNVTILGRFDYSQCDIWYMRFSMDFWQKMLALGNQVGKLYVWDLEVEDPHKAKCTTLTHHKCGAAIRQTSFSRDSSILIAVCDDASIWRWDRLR
UniProt Q15022: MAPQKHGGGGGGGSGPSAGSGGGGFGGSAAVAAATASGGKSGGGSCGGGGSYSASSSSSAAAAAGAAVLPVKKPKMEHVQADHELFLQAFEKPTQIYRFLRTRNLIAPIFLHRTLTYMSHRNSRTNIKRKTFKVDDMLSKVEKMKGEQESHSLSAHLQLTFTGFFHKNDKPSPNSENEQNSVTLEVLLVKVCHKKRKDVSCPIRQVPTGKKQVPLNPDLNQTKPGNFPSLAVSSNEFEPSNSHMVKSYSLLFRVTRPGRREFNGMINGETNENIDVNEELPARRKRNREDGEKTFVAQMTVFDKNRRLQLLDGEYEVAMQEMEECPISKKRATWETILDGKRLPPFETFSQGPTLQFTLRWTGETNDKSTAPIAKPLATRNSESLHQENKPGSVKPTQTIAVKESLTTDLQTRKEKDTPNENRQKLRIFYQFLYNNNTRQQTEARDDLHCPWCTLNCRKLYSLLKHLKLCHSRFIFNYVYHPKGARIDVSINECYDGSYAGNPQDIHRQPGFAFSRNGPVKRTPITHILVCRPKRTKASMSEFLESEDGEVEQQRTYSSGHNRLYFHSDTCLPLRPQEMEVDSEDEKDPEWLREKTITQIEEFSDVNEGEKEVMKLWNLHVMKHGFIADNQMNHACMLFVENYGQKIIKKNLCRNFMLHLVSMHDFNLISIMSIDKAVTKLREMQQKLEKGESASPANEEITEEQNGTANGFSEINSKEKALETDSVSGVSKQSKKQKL

Key:
[1] = molecular target: pEZH2(T367) (endogenous EZH2 phosphorylated at T367) (human (endogenous in MDA-MB-231)) (UniProt Q15910); assay: proximity ligation; fixed breast cancer cells (MDA-MB-231); DuoLink PLA probes; confocal imaging
[2] = molecular target: EED (human (endogenous in MDA-MB-231)) (UniProt O75530); assay: co-IP + proximity ligation; endogenous proteins in breast cancer cells (Supplementary Fig. 6E); the sentence names both methods and does not tell which showed the lack of interaction
[3] = molecular target: SUZ12 (human (endogenous in MDA-MB-231)) (UniProt Q15022); assay: as above

“vinculin (endogenous) (from UniProt P18206-2)” was tested, and the binding [1] was “binds”, the binding [2] was “no binding” and the binding [3] was “no binding”.
